Literature values, collected in patent US20250320462A1, “METHODS AND APPARATUSES FOR TESTING HEPATOCYTE TOXICITY USING MICROORGANOSPHERES” (XILIS, INC., priority 2022, published 2025).

Tested on: 3D Hepatocyte Spheroid
Settings: values above 199 show no toxicity; read-out: 3D Hepatocyte Spheroid pIC50 (converted); cited from earlier work

Structure (SMILES): CCCCc1oc2ccccc2c1C(=O)c1cc(I)c(OCCN(CC)CC)c(I)c1 [Amiodarone]
- IC50: 27.5 µM
